Laboratory results reported in publication PMC4779111, “A Human Renal Proximal Tubule Cell Line with Stable Organic Anion Transporter 1 and 3 Expression Predictive for Antiviral-Induced Toxicity” (The AAPS Journal, 2016).
Where two headings read alike, the source gives them in different places.

Experiments:
OAT1 [1] = target: T1, OAT1 (Homo sapiens, UniProt Q4U2R8); design: host or cells: ciPTEC (human conditionally immortalized proximal tubule epithelial cells), lentiviral transduction; details: substrate PAH, S2-OAT1; read-out: IC50 (literature); cited from earlier work
T1 sequence (Q4U2R8 1-563): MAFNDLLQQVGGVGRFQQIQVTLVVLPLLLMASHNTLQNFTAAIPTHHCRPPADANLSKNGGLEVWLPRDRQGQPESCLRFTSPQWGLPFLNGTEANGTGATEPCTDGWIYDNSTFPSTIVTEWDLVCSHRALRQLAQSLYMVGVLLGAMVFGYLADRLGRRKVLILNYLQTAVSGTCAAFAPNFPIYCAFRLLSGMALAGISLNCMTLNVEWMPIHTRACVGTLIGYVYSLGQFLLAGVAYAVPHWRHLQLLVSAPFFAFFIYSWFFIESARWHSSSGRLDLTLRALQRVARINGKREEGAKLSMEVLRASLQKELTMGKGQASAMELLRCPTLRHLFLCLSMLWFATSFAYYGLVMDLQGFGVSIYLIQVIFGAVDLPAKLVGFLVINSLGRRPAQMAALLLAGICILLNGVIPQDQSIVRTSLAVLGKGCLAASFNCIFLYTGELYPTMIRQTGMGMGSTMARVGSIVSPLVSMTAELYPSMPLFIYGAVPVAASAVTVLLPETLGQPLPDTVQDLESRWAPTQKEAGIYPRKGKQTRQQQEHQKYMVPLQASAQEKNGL

OAT3 [2] = target: T2, OAT3 (Homo sapiens, UniProt Q8TCC7); assay: Inhibition of OAT-mediated fluorescein uptake in ciPTEC-OAT3
T2 sequence (Q8TCC7 1-542): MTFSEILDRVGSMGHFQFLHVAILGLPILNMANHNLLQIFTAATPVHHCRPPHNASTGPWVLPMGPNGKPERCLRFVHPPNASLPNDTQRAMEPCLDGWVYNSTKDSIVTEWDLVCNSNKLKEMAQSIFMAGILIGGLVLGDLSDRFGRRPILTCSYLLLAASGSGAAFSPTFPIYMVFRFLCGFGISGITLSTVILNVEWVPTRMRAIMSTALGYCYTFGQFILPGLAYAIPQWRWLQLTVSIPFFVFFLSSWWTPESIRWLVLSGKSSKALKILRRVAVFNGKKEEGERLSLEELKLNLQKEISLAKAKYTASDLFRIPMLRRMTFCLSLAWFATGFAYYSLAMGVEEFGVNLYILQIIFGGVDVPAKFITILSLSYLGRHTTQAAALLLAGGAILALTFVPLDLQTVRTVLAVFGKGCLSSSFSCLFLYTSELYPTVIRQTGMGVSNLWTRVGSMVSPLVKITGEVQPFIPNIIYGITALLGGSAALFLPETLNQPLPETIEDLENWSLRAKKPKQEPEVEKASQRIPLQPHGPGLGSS
Experimental: (§1) All chemicals were obtained from Sigma, unless stated otherwise. Uptake was stopped by washing three times with ice-cold HBSS (4°C).
(§2) Non-linear regression with variable slope constraining the top to 100% was used to fit the data after background subtraction with GraphPad Prism. Statistics was performed by two-way ANOVA (two-tailed, α = 0.05) using GraphPad Prism as well. All data is presented as mean ± SEM of at least three separate experiments (n = 3) performed in triplicate, unless stated otherwise.

OAT1 [3] = target: T1, OAT1; assay: Inhibition of OAT-mediated fluorescein uptake in ciPTEC-OAT1; assay type: cell-based; design: host or cells: ciPTEC (human conditionally immortalized proximal tubule epithelial cells), lentiviral transduction
Experimental: as §1, §2

OAT3 [4] = target: T2, OAT3; details: read-out: IC50 (literature); substrate estrone sulfate, S2-OAT3; cited from earlier work
OAT3 [5] = target: T2, OAT3; design: host or cells: ciPTEC (human conditionally immortalized proximal tubule epithelial cells), lentiviral transduction; method as in PMID 17314201; details: substrate sitagliptin, CHO-OAT3; read-out: IC50 (literature); cited from earlier work

- IC50 (OAT3 [2]): 2.3 ± 0.4 µM
SMILES: NS(=O)(=O)c1cc(C(=O)O)c(NCc2ccco2)cc1Cl [Furosemide, furosemide]
- IC50 (OAT1 [1]): 18 µM
- IC50 (OAT1 [3]): 25 ± 4 µM
- IC50 (OAT3 [4]): 7.31 µM
- IC50 (OAT3 [5]): 1.7 µM
